Read-outs that look alike come from different tables or passages of the source. No constants are given. Whether binding was seen depends on the method and setting. Binding seen in cells or lysates may run through a third protein. Some entries that bind do so weakly or less than the wild type. Sequences can lack the tags named with a protein.

Sequences of proteins named here, by UniProt entry; tags and fusion partners are left off.
UniProt Q01959, whole entry: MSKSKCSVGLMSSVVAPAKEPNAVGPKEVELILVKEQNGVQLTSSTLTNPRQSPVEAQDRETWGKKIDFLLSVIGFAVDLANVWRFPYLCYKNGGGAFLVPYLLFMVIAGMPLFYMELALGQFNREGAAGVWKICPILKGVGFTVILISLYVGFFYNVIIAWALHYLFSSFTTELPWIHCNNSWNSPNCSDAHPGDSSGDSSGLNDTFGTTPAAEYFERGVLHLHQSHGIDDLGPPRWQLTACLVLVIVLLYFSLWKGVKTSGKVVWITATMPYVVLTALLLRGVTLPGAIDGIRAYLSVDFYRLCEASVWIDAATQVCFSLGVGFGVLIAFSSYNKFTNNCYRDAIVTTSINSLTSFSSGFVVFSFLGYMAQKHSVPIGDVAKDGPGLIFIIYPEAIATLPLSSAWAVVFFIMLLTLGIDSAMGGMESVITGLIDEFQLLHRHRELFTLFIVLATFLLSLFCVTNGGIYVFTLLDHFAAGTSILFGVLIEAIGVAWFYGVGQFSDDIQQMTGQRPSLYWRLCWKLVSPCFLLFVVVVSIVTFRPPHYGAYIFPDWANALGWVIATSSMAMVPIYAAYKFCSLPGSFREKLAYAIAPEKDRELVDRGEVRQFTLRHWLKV
UniProt Q07912, whole entry: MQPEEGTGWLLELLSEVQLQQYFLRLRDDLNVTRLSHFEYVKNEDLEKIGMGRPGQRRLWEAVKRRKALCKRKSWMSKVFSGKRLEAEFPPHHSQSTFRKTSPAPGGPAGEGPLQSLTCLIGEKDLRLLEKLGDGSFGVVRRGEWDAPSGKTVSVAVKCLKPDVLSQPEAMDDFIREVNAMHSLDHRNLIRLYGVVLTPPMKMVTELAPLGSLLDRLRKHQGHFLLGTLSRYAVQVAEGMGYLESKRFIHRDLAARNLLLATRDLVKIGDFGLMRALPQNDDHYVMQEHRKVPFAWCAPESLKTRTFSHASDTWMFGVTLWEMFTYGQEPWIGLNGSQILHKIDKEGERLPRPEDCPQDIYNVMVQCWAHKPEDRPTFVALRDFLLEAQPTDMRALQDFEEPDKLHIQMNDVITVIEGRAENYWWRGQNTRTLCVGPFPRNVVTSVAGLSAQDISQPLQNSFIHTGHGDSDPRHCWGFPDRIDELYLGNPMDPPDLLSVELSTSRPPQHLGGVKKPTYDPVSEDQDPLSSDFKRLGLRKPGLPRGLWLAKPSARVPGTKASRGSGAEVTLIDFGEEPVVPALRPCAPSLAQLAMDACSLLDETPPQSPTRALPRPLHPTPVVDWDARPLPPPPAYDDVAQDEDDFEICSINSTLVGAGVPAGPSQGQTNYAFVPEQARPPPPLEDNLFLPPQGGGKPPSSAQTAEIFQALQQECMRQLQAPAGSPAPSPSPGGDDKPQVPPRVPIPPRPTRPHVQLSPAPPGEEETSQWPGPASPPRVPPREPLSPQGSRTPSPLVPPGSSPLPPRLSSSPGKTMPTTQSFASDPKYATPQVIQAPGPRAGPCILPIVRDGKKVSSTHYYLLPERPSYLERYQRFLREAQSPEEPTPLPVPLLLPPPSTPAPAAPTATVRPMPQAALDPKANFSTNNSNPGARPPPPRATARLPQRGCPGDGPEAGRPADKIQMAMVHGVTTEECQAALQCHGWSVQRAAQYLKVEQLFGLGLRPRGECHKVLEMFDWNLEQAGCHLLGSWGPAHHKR
UniProt Q92963, whole entry: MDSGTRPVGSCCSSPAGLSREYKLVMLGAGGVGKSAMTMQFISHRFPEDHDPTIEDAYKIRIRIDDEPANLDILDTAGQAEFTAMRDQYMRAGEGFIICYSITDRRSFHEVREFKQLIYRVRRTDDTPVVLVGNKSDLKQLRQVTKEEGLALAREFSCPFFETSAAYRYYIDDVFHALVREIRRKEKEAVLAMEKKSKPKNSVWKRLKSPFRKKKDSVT

The target in test [1] is BBS-DAT (bungarotoxin binding site-tagged human dopamine transporter) (human) (UniProt Q01959). The test is described as follows: pull-down.
Test [2] has as its target BBS-tagged S/DAT/S (SERT1-78/DAT60-583/SERT601-630) (human) (UniProt P31645). Description: pull-down.
The target in test [3] is BBS-tagged N-S/DAT (SERT1-78/DAT60-620) (human) (UniProt P31645). Description: pull-down.
Test [4] deals with BBS-tagged DAT/C-S (DAT1-583/SERT601-630) (human) (UniProt Q01959). The test is described as follows: pull-down.
The target in test [5] is T1, CFP-N-S/DAT (SERT1-78/DAT60-620) (human) (UniProt P31645+Q01959). The test is described as follows: FRET or BRET. On the technique in general: Bioluminescence resonance energy transfer reports proximity on the nanometre scale.
Test [6] addresses CFP-S/DAT/S (SERT1-78/DAT60-583/SERT601-630) (human) (UniProt P31645+Q01959). Description: FRET or BRET.
Test [7] addresses T1, CFP-N-S/DAT (SERT1-78/DAT60-620) (human). Description: FRET or BRET. This is another data set of the same source.
The target of the next test is CFP-DAT (human) (UniProt Q01959). Description: FRET or BRET.
Test [8] concerns the target CFP-DAT/C-S (DAT1-583/SERT601-630) (human) (UniProt Q01959+P31645). Description: FRET or BRET.

With Ack1-HA (from UniProt Q07912 1-1038), the binding entry in test [1] is on record as “binds”.
On the same count and under the same terms, for GFP-Rit1 (from UniProt Q92963 1-219) the value was “no binding”.

B1: HA-Rit2 (protein, UniProt Q99578 1-217)
chain: MEVENEASCSPGSASGGSREYKVVMLGAGGVGKSAMTMQFISHQFPDYHDPTIEDAYKTQVRIDNEPAYLDILDTAGQAEFTAMREQYMRGGEGFIICYSVTDRQSFQEAAKFKELIFQVRHTYEIPLVLVGNKIDLEQFRQVSTEEGLSLAQEYNCGFFETSAALRFCIDDAFHGLVREIRKKESMPSLMEKKLKRKDSLWKKLKGSLKKKRENMT
In the case of B1, the binding result in test [2], in test [1], in [3] and in test [4] was “binds” each time.

B2: YFP-Rit2 (protein, UniProt Q99578 1-217)
chain: B1 chain
With B2, the binding entry (in test [5]; in [6]; in test [7]; in the test with CFP-DAT (human); in test [8]) was “binds” each time.

(Values after publication doi:10.1101/712448.)
